This is an account of results in patent publication US12351651B2 (Sichuan Gooddoctor Panxi Pharmaceutical Co., Ltd., priority 2020, dated 2025).

No end group written: not given here.

The first data set is described as follows: general procedure: Fmoc solid-phase peptide synthesis; 2-chlorotrityl chloride resin (0.73 mmol/g); DIC/HOBt. As to conditions: whole synthesis, scale of the general procedure 2.0192 g resin, acetate (salt exchange).
Take Val-Pro-Leu-Val (VPLV): the “final purity (method not given)” value amounted to 100.0% and the isolated yield is reported as 58.3%. The matching figures for PIAEPVPLVKQD: 100.0% and 41.9%.

Regarding Glu-Pro-Val-Pro-Leu (EPVPL), the “final purity (method not given)” value amounted to 97.9% and the isolated yield is reported as 52.2%.

In the case of PAAEPVGVVK, the “final purity (method not given)” value was determined as 100.0% and the isolated yield came to 56.9%. The matching figures for PAAEPVPIVKQD: 100.0% and 53.5%.

As for PAGEPVPLVKQD, the “final purity (method not given)” value was found to be 100.0% and the isolated yield stood at 56.7%. For the substance PVPLVKQD, the “final purity (method not given)” value came out at 100.0% and the isolated yield amounted to 43.6%. The matching figures for PAANPVPLVKQD: 100.0% and 57.5%. The corresponding values for PAAEPVPVVKQD are 100.0% and 57.1%. Turning to GAGVGVPLVKQD, the “final purity (method not given)” value came to 100.0% and the isolated yield stood at 54.5%.

Consider PAAEPVPFVKQD, for which the “final purity (method not given)” value came out at 100.0% and the isolated yield was determined as 78.3%. As to PAAEPVPLVKQE, the “final purity (method not given)” value is 99.5% and the isolated yield worked out at 80.8%. Regarding AAEPVPLVKQD, the “final purity (method not given)” value is on record as 100.0%.

On to PAAEPVPLMKQD, for which the “final purity (method not given)” value worked out at 100.0% and the isolated yield was 33.3%. The corresponding values for PAAQPVPLVKQD are 100.0% and 57.4%. The matching figures for PAAEPVPLVKQN: 100.0% and 48.4%. On to GAAVPVPLVKQD, for which the “final purity (method not given)” value is given as 100.0% and the isolated yield is listed as 58.9%. The corresponding values for PAAEPVGLVKQD are 99.2% and 42.3%. The matching figures for PAAEPVPLLKQD: 100.0% and 61.8%. The corresponding values for AEPVPLVKQD are 100.0% and 48.3%.

Turning to PAIEPVPLVKQD, the “final purity (method not given)” value was determined as 100.0% and the isolated yield is 72.1%. On to PAAEPVPLVKND, for which the “final purity (method not given)” value is reported as 100.0% and the isolated yield is listed as 57.7%. Consider Ala-Glu-Pro-Val (AEPV), for which the “final purity (method not given)” value turned out to be 100.0% and the isolated yield is given as 57.8%. Consider PAAEAVALVKQD, for which the “final purity (method not given)” value is recorded as 99.7% and the isolated yield came to 19.1%.

Turning to PALEPVPLVKQD, the “final purity (method not given)” value is listed as 100.0% and the isolated yield was determined as 64.7%. The matching figures for AAEPVPL: 100.0% and 60.3%. As to PAAEPVPLVRQD, the “final purity (method not given)” value is on record as 100.0% and the isolated yield is 49.8%. The corresponding values for PAAEPVPLVVQD are 100.0% and 53.9%. For the substance PAAEPVGLVK, the “final purity (method not given)” value turned out to be 100.0% and the isolated yield was 53.5%. The matching figures for PAAEGVGLVKQD: 100.0% and 14.4%. Regarding PAAEAVPLVKQD, the “final purity (method not given)” value came to 100.0% and the isolated yield is recorded as 52.0%. The corresponding values for PAAEPV are 100.0% and 94.3%. The matching figures for PAAEGVGL: 98.9% and 67.9%. The corresponding values for Pro-Ala-Ala-Glu are 100.0% and 65.3%.

In the case of PAAEPVPYVK, the “final purity (method not given)” value is 100.0% and the isolated yield was 51.1%. Consider PAAEGVPLVKQD, for which the “final purity (method not given)” value is 97.9% and the isolated yield is listed as 56.8%. The matching figures for GAGVPVPLVKQD: 100.0% and 45.0%.

Turning to AAAEPVPLVKQD, the “final purity (method not given)” value is on record as 100.0% and the isolated yield was determined as 61.6%.

Turning to PAAEPVPLIKQD, the “final purity (method not given)” value is listed as 100.0% and the isolated yield was determined as 57.2%.

PAAEPVP: the “final purity (method not given)” value is recorded as 100.0% and the isolated yield is on record as 55.4%. As to EPVPLVKQD, the “final purity (method not given)” value is listed as 94.1% and the isolated yield turned out to be 56.0%. As for PAAEPVPMVK, the “final purity (method not given)” value turned out to be 98.6% and the isolated yield is 48.8%. PAAVPVPLVKQD: the “final purity (method not given)” value is recorded as 100.0% and the isolated yield is 54.4%. With PAPEPVPLVKQD, the “final purity (method not given)” value was determined as 100.0% and the isolated yield was 22.2%. The corresponding values for PAAEPVGAVKQD are 100.0% and 38.1%. With GAAEPVPLVKQD, the “final purity (method not given)” value came to 100.0%. In the case of PAAEPVPLVKED, the “final purity (method not given)” value is listed as 100.0% and the isolated yield came out at 61.3%. The matching figures for PAAEPVPYVKQD: 100.0% and 38.4%. Consider VPLVKQD, for which the “final purity (method not given)” value is 100.0%.

For PAADPVPLVKQD, the “final purity (method not given)” value worked out at 99.6% and the isolated yield is reported as 52.9%. The matching figures for PAAEPVAVVK: 100.0% and 57.3%.

On to PLAEPVPLVKQD, for which the “final purity (method not given)” value stood at 100.0% and the isolated yield amounted to 62.7%. Regarding PAAEPVAFVKQD, the “final purity (method not given)” value came to 100.0% and the isolated yield worked out at 43.3%. The matching figures for PAAEPVALVKQD: 100.0% and 37.7%.

Regarding PAAEPVGFVK, the “final purity (method not given)” value amounted to 100.0% and the isolated yield is given as 55.5%. The corresponding values for PAAEPVPLVKDD are 99.5% and 51.7%. The matching figures for PAAEPVPL: 100.0% and 60.3%. For the substance Pro-Ala-Ala-Glu-Pro (PAAEP), the “final purity (method not given)” value stood at 99.2% and the isolated yield was found to be 59.3%. On to Ala-Glu-Pro-Val-Pro (AEPVP), for which the “final purity (method not given)” value came to 100.0% and the isolated yield is given as 47.8%.

PAAEPVPLVK: the “final purity (method not given)” value came to 99.8% and the isolated yield is 33.8%. On to PAAEPVALVK, for which the “final purity (method not given)” value amounted to 100.0% and the isolated yield was determined as 60.1%. The matching figures for Pro-Val-Pro-Leu (PVPL): 100.0% and 46.4%. The corresponding values for PAAEPVPVVK are 98.7% and 56.7%. The corresponding values for AEPVPL are 100.0% and 71.7%.

As to PAAEPVGVVKQD, the “final purity (method not given)” value stood at 100.0% and the isolated yield turned out to be 46.5%. In the case of PAALPVPLVKQD, the “final purity (method not given)” value worked out at 100.0% and the isolated yield worked out at 57.9%.

Regarding PLVKQD, the “final purity (method not given)” value worked out at 100.0% and the isolated yield is 49.8%. The matching figures for PAAEPVPFVK: 100.0% and 53.8%. For PAAEPVAFVK, the “final purity (method not given)” value is given as 100.0% and the isolated yield stood at 59.0%. For the substance PAAEPVPIVK, the “final purity (method not given)” value is reported as 99.6% and the isolated yield is 58.5%. Take PAAEPVPMVKQD: the “final purity (method not given)” value was 100.0% and the isolated yield was 59.4%.

Staying with this data set, now noted: whole synthesis, scale of the general procedure 2.0192 g resin, acetate (salt exchange); run 1.
On to VPLVKQD, for which the isolated yield worked out at 57.9%.

Still in this data set, the particulars now being: whole synthesis, scale of the general procedure 2.0192 g resin, acetate (salt exchange); run 2.
For the substance VPLVKQD, the isolated yield was determined as 53.3%.
